## Results of single-concentration screens

Protein sequences, listed by entry. Tags and fused reporters are not part of them. Residues count along the entry.
UniProt P9WNZ1, whole entry: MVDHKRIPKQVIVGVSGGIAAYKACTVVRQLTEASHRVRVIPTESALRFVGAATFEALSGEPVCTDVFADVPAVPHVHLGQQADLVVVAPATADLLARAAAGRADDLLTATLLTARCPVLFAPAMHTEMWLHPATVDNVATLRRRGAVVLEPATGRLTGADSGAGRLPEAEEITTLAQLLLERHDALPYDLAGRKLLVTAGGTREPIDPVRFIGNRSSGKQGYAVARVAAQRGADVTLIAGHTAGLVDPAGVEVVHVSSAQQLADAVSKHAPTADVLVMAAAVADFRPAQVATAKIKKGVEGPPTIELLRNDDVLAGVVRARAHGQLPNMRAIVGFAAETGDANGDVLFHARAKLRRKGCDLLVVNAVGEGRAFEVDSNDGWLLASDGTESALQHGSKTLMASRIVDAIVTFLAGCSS
UniProt I6X8D2, whole entry: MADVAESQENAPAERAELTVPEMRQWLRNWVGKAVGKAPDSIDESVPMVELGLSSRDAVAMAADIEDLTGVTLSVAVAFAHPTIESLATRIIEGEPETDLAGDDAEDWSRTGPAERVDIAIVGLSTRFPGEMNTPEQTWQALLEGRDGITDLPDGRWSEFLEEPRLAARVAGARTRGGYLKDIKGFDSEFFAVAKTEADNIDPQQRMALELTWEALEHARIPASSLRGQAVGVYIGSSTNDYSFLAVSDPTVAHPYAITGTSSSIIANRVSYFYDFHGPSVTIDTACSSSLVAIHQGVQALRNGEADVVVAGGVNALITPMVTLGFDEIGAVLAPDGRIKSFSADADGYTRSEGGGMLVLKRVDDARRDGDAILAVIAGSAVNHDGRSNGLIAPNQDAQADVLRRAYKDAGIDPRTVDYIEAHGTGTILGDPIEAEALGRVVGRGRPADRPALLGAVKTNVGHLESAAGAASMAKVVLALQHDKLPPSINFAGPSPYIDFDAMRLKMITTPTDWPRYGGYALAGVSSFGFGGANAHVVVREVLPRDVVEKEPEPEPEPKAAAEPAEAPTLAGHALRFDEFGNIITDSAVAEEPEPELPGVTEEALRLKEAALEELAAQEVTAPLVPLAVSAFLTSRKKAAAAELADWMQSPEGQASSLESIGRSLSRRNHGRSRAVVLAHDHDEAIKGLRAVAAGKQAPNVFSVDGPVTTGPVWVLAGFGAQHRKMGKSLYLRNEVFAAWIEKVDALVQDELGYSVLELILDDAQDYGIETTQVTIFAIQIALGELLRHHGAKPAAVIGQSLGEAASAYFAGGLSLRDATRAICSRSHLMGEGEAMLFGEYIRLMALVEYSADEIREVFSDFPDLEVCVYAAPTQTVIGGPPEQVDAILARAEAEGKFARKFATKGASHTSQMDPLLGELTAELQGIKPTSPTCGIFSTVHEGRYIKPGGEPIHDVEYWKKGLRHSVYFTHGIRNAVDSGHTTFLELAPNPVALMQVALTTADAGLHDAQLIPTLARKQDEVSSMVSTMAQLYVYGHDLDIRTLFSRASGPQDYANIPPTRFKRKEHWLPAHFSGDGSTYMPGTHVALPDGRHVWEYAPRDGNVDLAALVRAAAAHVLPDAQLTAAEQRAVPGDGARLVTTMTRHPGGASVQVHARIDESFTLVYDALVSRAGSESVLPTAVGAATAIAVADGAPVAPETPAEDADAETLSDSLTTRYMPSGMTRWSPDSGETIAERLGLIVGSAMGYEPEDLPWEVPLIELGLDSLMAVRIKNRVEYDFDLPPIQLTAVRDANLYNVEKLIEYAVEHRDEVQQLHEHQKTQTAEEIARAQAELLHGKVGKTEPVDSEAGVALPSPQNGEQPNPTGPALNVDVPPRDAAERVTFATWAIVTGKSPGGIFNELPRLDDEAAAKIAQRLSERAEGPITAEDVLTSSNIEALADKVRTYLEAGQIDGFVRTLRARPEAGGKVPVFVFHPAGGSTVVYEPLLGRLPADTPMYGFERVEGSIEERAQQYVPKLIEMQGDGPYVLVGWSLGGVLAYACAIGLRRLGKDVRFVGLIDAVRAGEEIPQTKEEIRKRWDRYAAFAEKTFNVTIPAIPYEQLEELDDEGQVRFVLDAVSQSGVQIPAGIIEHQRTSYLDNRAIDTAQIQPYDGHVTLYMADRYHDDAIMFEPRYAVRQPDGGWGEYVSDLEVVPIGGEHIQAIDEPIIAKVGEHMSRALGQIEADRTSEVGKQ
UniProt P9WFT3, whole entry: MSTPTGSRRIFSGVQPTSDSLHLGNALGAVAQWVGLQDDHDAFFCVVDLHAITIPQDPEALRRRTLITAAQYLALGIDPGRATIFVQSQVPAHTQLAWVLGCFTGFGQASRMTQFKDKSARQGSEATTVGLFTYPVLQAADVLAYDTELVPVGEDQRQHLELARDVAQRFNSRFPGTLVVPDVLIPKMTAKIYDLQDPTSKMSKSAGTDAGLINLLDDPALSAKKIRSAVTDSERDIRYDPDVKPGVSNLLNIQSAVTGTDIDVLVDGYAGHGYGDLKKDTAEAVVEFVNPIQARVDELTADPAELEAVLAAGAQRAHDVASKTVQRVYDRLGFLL
UniProt A4I591, 1-473: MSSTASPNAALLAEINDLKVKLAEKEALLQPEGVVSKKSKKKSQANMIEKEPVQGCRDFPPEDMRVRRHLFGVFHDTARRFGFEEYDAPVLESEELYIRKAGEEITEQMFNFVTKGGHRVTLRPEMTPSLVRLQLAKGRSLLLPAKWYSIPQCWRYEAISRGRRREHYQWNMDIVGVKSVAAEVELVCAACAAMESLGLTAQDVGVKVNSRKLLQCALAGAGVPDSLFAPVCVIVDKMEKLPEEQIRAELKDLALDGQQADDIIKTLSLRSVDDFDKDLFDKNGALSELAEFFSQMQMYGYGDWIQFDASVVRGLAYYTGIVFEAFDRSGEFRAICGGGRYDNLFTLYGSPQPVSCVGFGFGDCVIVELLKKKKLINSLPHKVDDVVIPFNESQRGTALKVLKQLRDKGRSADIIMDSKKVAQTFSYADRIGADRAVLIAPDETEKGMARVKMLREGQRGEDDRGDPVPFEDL

Each number is a percent effect as filed.
The controls that fix the scale are not given in the record; negative values are as filed.
This is an unselected part of the compounds tested.
A dash means the value is not listed here; it may have been measured.

CoaBC: 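Enzyme assay of CoaBC with a phosphate dye (Biomol Green) read at 650 nm. Target: Coenzyme A biosynthesis protein CoaBC, Mycobacterium tuberculosis (UniProt P9WNZ1). Tested at 30 µM. Direction is inferred from only a few compounds that gave an IC50; most scored high, so higher reads as stronger inhibition. Most strong results did not repeat in a second test. Of about 67,000 compounds tested this way, about 40 (0.06%) reached 50% or more in at least one test.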
Pks13 thioesterase: 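Enzyme assay of the thioesterase domain of polyketide synthase 13; the read-out is not stated. Target: Polyketide synthase Pks13, Mycobacterium tuberculosis (UniProt I6X8D2). Compounds at 30 µM. Higher reads as stronger inhibition (inferred from which compounds were picked for retests). Size under these conditions: about 67,000 compounds, about 300 of them at 50% or above in at least one test.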
MtTrpRS: 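Tryptophan-tRNA ligase, Mycobacterium tuberculosis (UniProt P9WFT3). Enzyme assay of tryptophanyl-tRNA synthetase; the read-out is not stated. Concentration: 10 µM. Higher most likely means stronger inhibition; the record gives no direction and few retests gave an IC50. Of about 65,000 compounds tested this way, about 64 (0.098%) reached 50% or more in at least one test.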
LiHisRS: 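Enzyme assay of histidyl-tRNA synthetase; the read-out is not stated. Target: Histidine-tRNA ligase, Leishmania infantum (UniProt A4I591). Concentration: 30 µM. The record gives no direction; compounds that gave an IC50 in retests scored well above the rest, so higher reads as stronger inhibition. The assay is labelled LdHisRS but filed under L. infantum. Size under these conditions: about 69,000 compounds, about 410 of them at 50% or above in at least one test.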

Compound,CoaBC,Pks13 thioesterase,MtTrpRS,LiHisRS
CCCNC(=O)N1CCc2ccc(S(=O)(=O)N3CCOCC3)cc2C1,0.2484,-4.832,2.477,15.87
O=C(NC1CC1)c1ccc2ccc(N3CCN(CC4CC4)CC3)n2c1,6.288,4.132,-0.8397,29.27
CNC(=O)c1ccc(N(C)C2CCC2)nn1,7.042,6.087,8.473,20.51
O=C(c1c[nH]cn1)N1CCCn2c(nnc2Cn2cccc2)C1,4,-,4.064,22.12
NC(=O)C1CN(C(=O)Nc2ccc(SC(F)(F)F)cc2)CCO1 (stereo not drawn),6.14,9.671,-9.097,8.929
Cc1ccc(C(=O)N2CCN(C(=O)Cc3ccccn3)CC2)c(C)c1,5.216,-16.14,3.323,11.3
Cc1cc(N(C)C)nc(NCCn2cccn2)n1,6.226,-3.513,3.799,13.51
Cc1ncsc1C(=O)NCCNc1cnccn1,0.7353,-18.03,-2.469,15.56
COCCC(=O)N1CCC2(CCCN(Cc3cc(OC)ccc3F)C2)C1 (stereo not drawn),4.078,-36.19,-0.5622,4.11
O=C(NCCNc1cnccn1)C1CCN(C(=O)N2CCCC2)CC1,7.572,21.81,-3.216,21.62
CN(C(=O)NCCN1CCOCC1)C1CCN(c2ccccc2)C1=O (stereo not drawn),5.371,-15.83,0.832,14.68
Cn1ccnc(Sc2cccc(C#N)c2)c1=O,9.728,-3.798,-1.14,9.91
N#CCCNC(=O)c1ccn(-c2ccc3ccccn23)n1,1.681,1.251,-2.964,1.818
Cc1cc(-c2ccccc2C(=O)O)nc(C2CCCN(C(C)C)C2)n1 (stereo not drawn),2.179,0.4046,-,4.124
Cn1nc(CNC(=O)c2ccc3nsnc3c2)c2c1CCOC2,-0.1318,-12.26,-3.562,9.589
O=C(c1ccccn1)N1C[C@@H]2CC[C@H](C1)N(C(=O)CCC1CCCC1)C2,0.8444,-4.96,-0.07246,13.6
Cc1cnc(C)c(N2CCCC(CO)(Cc3cccc(Cl)c3)C2)n1 (stereo not drawn),1.777,-2.203,-0.4519,24.71
N#Cc1cccnc1N1CCCC(CO)(CCOc2ccccc2)C1 (stereo not drawn),3.748,-13.69,0.4617,15.15
Cc1noc(C)c1C(=O)NCCN1CCN(c2ccccc2)CC1,5.909,-18.52,-3.271,24.66
CNc1cc(C)nc(-c2cc(NC)nc3[nH]ccc23)n1,-10.41,48.35,1.909,-2.041
Cc1cc(C(=O)NCc2ccc(N3CCCC(C(N)=O)C3)cc2)[nH]n1 (stereo not drawn),5.085,-13.61,-4.983,12.16
CSc1cccc(NC(=O)N2CCCC(CNC(=O)c3ccco3)C2)c1 (stereo not drawn),-4.72,-23.32,-1.156,11.11
COC(=O)N1CCc2ccccc2C1C(=O)NCc1cccs1 (stereo not drawn),-1.48,-20.77,3.419,13.91
Nc1cc(C(=O)N2CCC3(CC2)Nc2ccccc2NC3=O)ccn1,-1.327,10.29,0.6522,5.6
CCOC(=O)C1CCCCN1Cc1c[nH]nc1-c1cc2ccccc2o1 (stereo not drawn),5.882,-48.15,0.315,6.557
Cc1ccc(CC(NC(=O)CN(C)C2CC2)c2ccccn2)cc1 (stereo not drawn),1.091,-9.7,-1.481,12.9
COc1ccccc1CC(C)(C)C(=O)NCC(=O)Nc1cccnc1,-29.95,-6.839,2.994,5.618
Cn1cc(N2C(=O)CC[C@@H]3[C@H]2CCN3Cc2ccncc2)cn1,0.3807,9.709,4.512,22.64
Cc1noc(C)c1C(=O)N1CC[C@H]2C[C@@H](c3ccncn3)O[C@@H]2C1,-0.3861,-10.21,0.2876,21.57
CC(C)c1noc(C2CCN(C(=O)c3cccs3)CC2)n1,5.166,-14.6,4.158,37.17
CCn1cc2c(n1)C(COCC1CC1)CN(C(=O)c1cc(C)on1)C2 (stereo not drawn),-,-39.5,2.265,17.24
Cc1cc(C)c2c(OCC(=O)NCC(O)C(F)(F)F)nn(C)c2n1 (stereo not drawn),3.904,-13.62,9.216,10.2
CCCOc1cc(C)c2c(c1C)C[C@H]([C@H](C)C(=O)O)CC2,-45.78,25.4,-2.212,5.405
O=C(CO)N1CCCC2(CCN(c3ccsc3)C2=O)C1 (stereo not drawn),-9.023,-9.457,-0.2274,-147
CCC(C)Oc1ccc(CNCCc2c[nH]cn2)cc1Cl (stereo not drawn),-13.27,-33.77,-1.514,10.59
CCC(=O)c1ccc(OCC(=O)NCC2CC(CC)=NO2)cc1 (stereo not drawn),-2.823,-15.57,-2.807,18.42
Cc1cnn(CC2CCCN2Cc2coc(-c3cccs3)n2)c1 (stereo not drawn),4.478,-10.83,-1.212,23.08
CN1CCC(Oc2ccc(NC(=O)c3ccccc3)cc2)CC1,3.739,6.467,-0.07246,8.8
O=C1CC2(CCN(Cc3ccc(-c4ccn[nH]4)s3)CC2)CN1,9.368,-37.7,-9.808,10.53
CN(C)C(=O)c1ccc2c(c1)N(C)C(CC(=O)NCCOCCO)CO2 (stereo not drawn),5.72,-1.51,4.34,21.21
CCN(CCC(=O)NC1CC1)Cc1ccc(Cl)s1,7.662,-10.43,-0.5187,9.649
Cc1nc(C2CCCN2C(=O)CNS(C)(=O)=O)no1 (stereo not drawn),0,-13.85,-1.421,14.56
O=C(O)c1cccc(C2CCCN(S(=O)(=O)C3CC3)C2)c1 (stereo not drawn),9.013,-14.89,0.6156,8.197
CC(C)(C)c1ncc(C(=O)NCCn2ccnc2)s1,-2.451,-47.92,-7.407,-8.889
CC(=O)c1cccc(S(=O)(=O)NCc2cccnc2N(C)C)c1,1.837,-2.416,-4.126,15.25
CO[C@H]1COCCN(C(=O)c2ccno2)C1,-4.636,-24.93,-0.9863,33.78
OC1CCN([C@@H]2CCN(c3nc(-c4ccccc4)no3)C[C@H]2O)CC1,5.832,-28.66,-3.359,17.14
CS(=O)(=O)C1(C(=O)NC2CCc3nccn3C2)CCCC1 (stereo not drawn),3.719,17.38,0.7965,8.036
Cc1nccn1C1CCCN(C(=O)c2ccc3cc[nH]c3c2)C1 (stereo not drawn),1.405,-0.3012,-4.475,15.18
Cc1ccc(C(=O)N2CCCN(Cc3cccs3)CC2)c(=O)[nH]1,5.789,-11.77,-3.877,17.59
CN(C)C(=O)CN1CC[C@H]2CN(S(C)(=O)=O)C[C@@H]2C1=O,-4.835,-20.2,8.003,15.53
COCCOCC1CCN(C(=O)c2ccc3[nH]cnc3c2)C1 (stereo not drawn),-0.1988,10.28,-0.983,17.33
COc1c(Cl)cccc1NCc1csc(C)n1,3.113,-13.13,-3.419,-2.703
Cn1cc(CN2CCC(F)(F)C3(CCN(c4ncc(F)cn4)C3)C2)cn1 (stereo not drawn),-3.03,-1.657,-2.884,12.33
Cc1cnn(CC2CN(c3ncnc4ccsc34)CCO2)c1 (stereo not drawn),-1.035,-6.227,-3.189,23.08
CCc1nnc2n1CCN(Cc1csc(-c3ccc(C)o3)n1)C2,1.813,20.98,-0.6681,40.43
CC1(C)CNC(=O)c2nc(C3CCCN(C(=O)C4CC4)C3)[nH]c2C1 (stereo not drawn),-2.539,12.38,1.469,9.677
CCN(CCC#N)Cn1ncc2cn(-c3ccccc3)nc2c1=O,2.609,-26.2,-5.491,8.901
CN(C)c1nc2sc(C(=O)N3CCNC(=O)CC3)cc2s1,5.409,25.04,-1.497,21.24
Cn1cc(C2CCCN2C(=O)CCCOc2ccc(F)cc2)cn1 (stereo not drawn),6.888,-20.69,14.94,9.091
CCN(C(=O)c1ccc2c(c1)OCO2)C1CC(=O)NC1=O (stereo not drawn),2.427,-9.595,-3.451,14.46
COc1ccc(S(=O)(=O)NC(=O)c2c(C)noc2C(C)C)cc1OC,7.368,2.243,0.1649,11.32
CCC(CO)N(Cc1cccnc1)C(=O)c1ccc(C(F)(F)F)nc1O (stereo not drawn),3.418,-5.887,2.447,18.07
Cc1noc([C@H]2C[C@H]3OCC[C@H]3N(Cc3ccc4c(c3)OCO4)C2)n1,8.226,-21.4,1.831,19.55

Data taken from ChEMBL document CHEMBL3988442, “University of Dundee, Small-Polar-MMV Screening Library” (2021).